PubChem BioAssay AID1259259 | Sanger Institute | 2017
The whole screen tested 794 reagents; shown is an unselected part. Over the whole deposit, 9 (1.1%) were called active. 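Calls rest on knock-down alone, not drug synergy; viability values seem capped at 1.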 Not all columns of the deposit are shown. The record does not give: the amount of reagent, the time to read-out.

- Test: 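Synthetic lethal kinase partners of anchor drugs in colorectal cancer cells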 (primary screen)
- Cell system: SW1463 human colorectal cancer cells
- Reagent: siRNA pool against human genes
- Conditions: DMSO vehicle, or one anchor drug: BYL719 at 1 µM, cetuximab at 5 µg/ml, or trametinib at 10 nM
- Measured: 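Viability as fraction of control pool 2 (non-targeting), replicate mean; knock-down robust z-score without any drug; synergy score averaged for each anchor drug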
- Scale: robust z-score, knock-down alone: higher = more viable cells after knock-down; viability, knock-down alone: higher = more viable cells; synergy score with BYL719 and synergy score with cetuximab: higher = stronger synergy (synthetic lethal) with drug
- Call rule: 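a robust z-score under -3 for knock-down with no drug marks the gene as essential, meaning viability loss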
- Calls: active = essential: viability loss from knock-down alone; inactive = no change from knock-down alone

target gene | robust z-score, knock-down alone | viability, knock-down alone (fraction of control) | synergy score with BYL719 | synergy score with cetuximab | Outcome
PIM2 (GeneID 11040) | 0.534 | 0.962 | 0.143 | 0.239 | inactive
TLK1 (GeneID 9874) | -1.55 | 0.828 | 0.0609 | -0.0635 | inactive
BMPR2 (GeneID 659) | -1.14 | 0.854 | -0.0302 | 0.0325 | inactive
MET (GeneID 4233) | -1.55 | 0.828 | -0.154 | 0.00739 | inactive
MAPKAPK2 (GeneID 9261) | 0.00778 | 0.928 | -0.0177 | 0.101 | inactive
STK38 (GeneID 11329) | -0.076 | 0.923 | -0.00581 | 0.244 | inactive
SRPK3 (GeneID 26576) | 0.228 | 0.942 | -0.0577 | -0.0486 | inactive
PTPRU (GeneID 10076) | -2.71 | 0.753 | -0.104 | 0.0135 | inactive
HUS1 (GeneID 3364) | 1.13 | 1 | 0 | 0.254 | inactive
PMVK (GeneID 10654) | -0.328 | 0.907 | 0.0142 | 0.124 | inactive
MAP2K4 (GeneID 6416) | 1.13 | 1 | 0 | 0.271 | inactive
CDKL2 (GeneID 8999) | 1.13 | 1 | 0.0227 | 0.00704 | inactive
ACVR1 (GeneID 90) | -0.0627 | 0.924 | 0.0799 | 0.137 | inactive
ASPM (GeneID 259266) | 0.315 | 0.948 | -0.00096 | -0.0779 | inactive
CDK3 (GeneID 1018) | 1.13 | 1 | 0 | -0.0272 | inactive
RIOK2 (GeneID 55781) | 0.911 | 0.986 | 0.046 | 0.123 | inactive
AURKB (GeneID 9212) | -0.348 | 0.905 | 0.0264 | 0.122 | inactive
SPEG (GeneID 10290) | 1.13 | 1 | 0 | -0.0272 | inactive
SRP72 (GeneID 6731) | -0.416 | 0.901 | -0.0325 | -0.124 | inactive
MYO3B (GeneID 140469) | -0.575 | 0.891 | -0.00292 | -0.0189 | inactive
TBK1 (GeneID 29110) | 1.13 | 1 | 0 | 0.0658 | inactive
NEK8 (GeneID 284086) | 0.137 | 0.936 | -0.0382 | 0.0415 | inactive
SBK1 (GeneID 388228) | -0.315 | 0.907 | -0.0926 | -0.0388 | inactive
SGK2 (GeneID 10110) | -0.864 | 0.872 | -0.0225 | 0.254 | inactive
OXSR1 (GeneID 9943) | -0.117 | 0.92 | -0.0609 | -0.105 | inactive
BMPR1B (GeneID 658) | 0.61 | 0.967 | -0.0332 | 0.0888 | inactive
CDKN2B (GeneID 1030) | -0.813 | 0.875 | -0.125 | -0.0971 | inactive
RIPK2 (GeneID 8767) | 0.011 | 0.928 | 0.018 | 0.0298 | inactive
MYH10 (GeneID 4628) | -0.444 | 0.899 | -0.101 | -0.0289 | inactive
HK3 (GeneID 3101) | -0.286 | 0.909 | -0.0908 | -0.116 | inactive
STK10 (GeneID 6793) | -1.12 | 0.856 | 0.0179 | 0.181 | inactive
EPHA3 (GeneID 2042) | -0.643 | 0.886 | 0.112 | 0.123 | inactive
STK3 (GeneID 6788) | 0.468 | 0.958 | -0.0423 | -0.0683 | inactive
ADCK5 (GeneID 203054) | 1.13 | 1 | 0.0439 | 0.16 | inactive

Records listed so far whose gene name begins with R or r:
target gene | robust z-score, knock-down alone | viability, knock-down alone (fraction of control) | synergy score with BYL719 | synergy score with cetuximab | Outcome
RIOK2 (GeneID 55781) | 0.911 | 0.986 | 0.046 | 0.123 | inactive
RIPK2 (GeneID 8767) | 0.011 | 0.928 | 0.018 | 0.0298 | inactive
